Where a name gives a salt, the structure may show the parent alone. Some of these results come from one statement about several compounds together. For at least one compound, name, drawing or mass did not settle the structure.
Molecular target: T1, human Cav2.2 α (α1B) subunit, along with the human β3 and α2δ1 auxiliary subunits (Homo sapiens, UniProt Q00975)
T1 construct: expressed in transfected cells
Assay: hCav2.2 assay, IonWorks planar array electrophysiology in stable HEK293 cell line
Type: cell-based
Details: for use-dependent pUD30: concentration producing 30% use-dependent inhibition, 10th versus 1st depolarising pulse, 10 Hz, -90 mV to +10 mV, HEK293 cells
Protocol: Compounds as defined in the first or second aspect may be tested for in vitro biological activity in the hCav2.2 assay in accordance with the following studies:
Stable cell lines expressing the human Cav2.2 α (α1B) subunit, along with the human β3 and α2δ1 auxiliary subunits were created following sequential transfection and selection of human embryonic kidney (HEK293) cells. HEK293 cells were cultured in Dulbecco's modified Eagles media/F12 media (Invitrogen, Cat #041-95750V) containing 10% fetal bovine serum, with added L-glutamine (2 mM; Invitrogen, Cat #25030-024) and non-essential amino acids (5%; Invitrogen, Cat #11140-035). Initially HEK293 cells were transfected with two plasmid vectors for expression of the hCav2.2 α subunit (pCIN5-hCav2.2 which carries a neomycin resistance marker) and the hCav β3 subunit (pCIH-hCav β3 which carries a hygromycin resistance marker). Clonal cell lines were isolated following selection in media supplemented with 0.4 mg ml^−1 Geneticin G418 (Invitrogen, Cat #10131-027) and 0.1 mg ml^−1 hygromycin (Invitrogen, Cat #10687-010). These clonal cell lines were assessed for Cav2.2 α/β3-mediated current expression using the IonWorks planar array electrophysiology technology (described below). A clonal line was identified that gave a reasonable level of functional Cav2.2 α/β3 current expression. This cell line was transfected with a plasmid vector for expression of the human α2δ1 subunit (pCIP-α2δ1 which carries a puromycin resistance marker) and clonal cell lines isolated following selection in media containing 0.62 μg ml^−1 puromycin (Sigma, Cat #P-7255), in addition to 0.4 mg ml^−1 Geneticin G418 and 0.1 mg ml^−1 hygromycin. Several cell lines were identified that gave robust levels of Cav2.2 α/β3/α2δ1-mediated current expression and one of these was selected for compound profiling. Expression of all three subunits within this cell line was continuously maintained by the inclusion of G418 (0.4 mg ml^−1), hygromycin (0.1 mg ml^−1) and puromycin (0.62 μg ml^−1). Cells were maintained at 37° C. in a humidified environment containing 5% CO2 in air. Cells were liberated from the T175 culture flasks for passage and harvesting using TrpLE (Invitrogen, Cat #12604-013).
Cells were grown to 30-60% confluence in T175 flasks and maintained at 30° C. for 24 hrs prior to recording. Cells were lifted by removing the growth media, washing with Ca^2+ free PBS (Invitrogen, Cat #14190-094) and incubating with 3 ml of warmed (37° C.) TrpLE (Invitrogen, Cat #12604-013) for 6 minutes. Lifted cells were suspended in 10 ml of extracellular buffer. Cell suspension was then placed into a 15 ml tube and centrifuged for 2 minutes at 700 rpm. After centrifugation, the supernatant was removed and the cell pellet was resuspended in 4.5 ml of extracellular solution.
Currents were recorded at room temperature (21-23° C.) using the IonWorks planar array electrophysiology technology (Molecular Devices Corp.). Stimulation protocols and data acquisition were carried out using a microcomputer (Dell Pentium 4). In order to determine planar electrode hole resistances (Rp), a 10 mV, 160 ms potential difference was applied across each hole. These measurements were performed before cell addition. After cell addition a seal test was performed prior to antibiotic (amphotericin) circulation to achieve intracellular access. Leak subtraction was conducted in all experiments by applying a 160 ms hyperpolarizing (10 mV) prepulse 200 ms before the test pulses to measure leak conductance. Test pulses stepping from the holding potential (VH) of −90 mV to +10 mV were applied for 20 ms and repeated 10 times at a frequency of 10 Hz. In all experiments, the test pulse protocol was performed in the absence (pre-read) and presence (post-read) of a compound. Pre- and post-reads were separated by a compound addition followed by a 3-3.5 min incubation. […]

Sequences of proteins named here, by UniProt entry; tags and fusion partners are left off. A change or cut given only in a name is not applied to a line headed by its entry.
UniProt Q00975, whole entry: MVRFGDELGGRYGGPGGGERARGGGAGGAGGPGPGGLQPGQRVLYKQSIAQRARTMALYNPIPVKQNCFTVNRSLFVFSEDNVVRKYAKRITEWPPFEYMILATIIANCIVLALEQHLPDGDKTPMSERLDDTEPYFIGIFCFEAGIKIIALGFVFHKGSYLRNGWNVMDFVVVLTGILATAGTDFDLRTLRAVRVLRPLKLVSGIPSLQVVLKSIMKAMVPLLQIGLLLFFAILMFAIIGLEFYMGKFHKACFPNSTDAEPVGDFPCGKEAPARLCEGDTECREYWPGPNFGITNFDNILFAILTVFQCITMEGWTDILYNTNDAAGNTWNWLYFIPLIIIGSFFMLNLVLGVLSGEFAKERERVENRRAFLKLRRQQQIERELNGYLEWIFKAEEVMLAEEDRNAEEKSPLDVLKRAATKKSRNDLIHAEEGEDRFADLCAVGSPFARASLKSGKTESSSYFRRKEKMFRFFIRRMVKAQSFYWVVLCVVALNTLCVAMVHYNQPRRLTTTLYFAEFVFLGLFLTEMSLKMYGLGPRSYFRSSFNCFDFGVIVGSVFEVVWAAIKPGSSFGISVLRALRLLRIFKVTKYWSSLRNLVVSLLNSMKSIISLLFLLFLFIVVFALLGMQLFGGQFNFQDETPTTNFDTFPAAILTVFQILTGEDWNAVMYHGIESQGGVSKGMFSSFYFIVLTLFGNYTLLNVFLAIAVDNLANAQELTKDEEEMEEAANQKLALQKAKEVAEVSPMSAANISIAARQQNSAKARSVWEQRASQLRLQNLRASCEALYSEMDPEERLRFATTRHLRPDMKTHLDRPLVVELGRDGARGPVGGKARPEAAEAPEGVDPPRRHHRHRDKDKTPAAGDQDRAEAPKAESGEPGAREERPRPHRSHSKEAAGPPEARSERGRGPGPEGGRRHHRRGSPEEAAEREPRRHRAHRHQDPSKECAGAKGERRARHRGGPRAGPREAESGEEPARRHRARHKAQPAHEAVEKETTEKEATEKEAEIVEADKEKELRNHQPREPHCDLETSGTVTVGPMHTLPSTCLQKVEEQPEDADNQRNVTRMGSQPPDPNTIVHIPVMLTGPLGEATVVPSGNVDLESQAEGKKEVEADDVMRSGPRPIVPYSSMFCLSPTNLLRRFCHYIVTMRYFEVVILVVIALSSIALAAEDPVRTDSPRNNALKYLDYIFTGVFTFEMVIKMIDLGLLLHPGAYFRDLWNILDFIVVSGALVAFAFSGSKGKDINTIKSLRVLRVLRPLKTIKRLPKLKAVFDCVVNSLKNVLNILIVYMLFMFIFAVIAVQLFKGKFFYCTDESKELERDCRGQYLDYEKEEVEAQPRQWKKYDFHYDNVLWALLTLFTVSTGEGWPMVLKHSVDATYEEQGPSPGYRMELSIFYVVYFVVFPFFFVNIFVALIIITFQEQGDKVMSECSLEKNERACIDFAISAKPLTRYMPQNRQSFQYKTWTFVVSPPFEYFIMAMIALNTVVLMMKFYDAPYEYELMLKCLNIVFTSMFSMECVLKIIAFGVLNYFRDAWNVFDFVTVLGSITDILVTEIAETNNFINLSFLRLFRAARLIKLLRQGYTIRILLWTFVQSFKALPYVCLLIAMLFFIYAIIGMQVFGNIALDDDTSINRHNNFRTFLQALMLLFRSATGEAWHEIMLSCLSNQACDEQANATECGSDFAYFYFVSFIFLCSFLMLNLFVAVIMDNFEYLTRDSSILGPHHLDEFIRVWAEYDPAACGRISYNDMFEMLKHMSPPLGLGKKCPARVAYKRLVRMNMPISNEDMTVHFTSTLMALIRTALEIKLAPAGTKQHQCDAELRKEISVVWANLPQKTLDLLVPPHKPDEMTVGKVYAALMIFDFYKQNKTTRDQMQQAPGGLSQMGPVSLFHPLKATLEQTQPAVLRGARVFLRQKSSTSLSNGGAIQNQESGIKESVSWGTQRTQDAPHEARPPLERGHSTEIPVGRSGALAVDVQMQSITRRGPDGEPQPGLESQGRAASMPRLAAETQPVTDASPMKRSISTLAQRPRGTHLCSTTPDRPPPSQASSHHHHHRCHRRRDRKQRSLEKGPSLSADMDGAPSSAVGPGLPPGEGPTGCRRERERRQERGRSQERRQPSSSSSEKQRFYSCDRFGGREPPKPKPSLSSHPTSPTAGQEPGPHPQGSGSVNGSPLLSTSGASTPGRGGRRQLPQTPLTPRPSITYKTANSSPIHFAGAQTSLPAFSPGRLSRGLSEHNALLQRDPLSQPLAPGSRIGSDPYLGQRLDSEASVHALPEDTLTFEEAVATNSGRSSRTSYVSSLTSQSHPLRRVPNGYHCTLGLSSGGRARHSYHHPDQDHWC

| Compound | activity in the hCav2.2 assay | also measured |
| --- | --- | --- |
| Cc1cc(Br)ccc1-n1nnnc1CN1C[C@@H](C)O[C@@H](C)C1.Cl [Compound 55, (cis)-4-{[1-(4-Bromo-2-methylphenyl)-1H-tetrazol-5-yl]methyl}-2,6-dimethylmorpholine hydrochloride] | showed activity | – |
| O=S1(=O)CCN(Cc2nnnn2-c2cccc(C(F)(F)F)c2)CC1 [Compound 15, 4-({1-[3-(Trifluoromethyl)phenyl]-1H-tetrazol-5-yl}methyl)thiomorpholine 1,1-dioxide] | showed activity | use-dependent pUD30: ≥ 4.5 |
| O=C1CN(Cc2nnnn2-c2cccc(C(F)(F)F)c2)CCN1 [Compound 36, 4-({1-[3-(Trifluoromethyl)phenyl]-1H-tetrazol-5-yl}methyl)-2-piperazinone] | showed activity | – |
| FC(F)(F)c1ccc(-n2nnnc2CN2CCNCC2)cc1 [Compound 46, 1-({1-[4-(Trifluoromethyl)phenyl]-1H-tetrazol-5-yl}methyl)piperazine] | showed activity | – |
| C[C@@H]1CN(CCc2nnnn2-c2ccc(C(F)(F)F)cc2)C[C@H](C)O1 [Compound 16, (cis)-2,6-Dimethyl-4-(2-{1-[4-(trifluoromethyl)phenyl]-1H-tetrazol-5-yl}ethyl)morpholine] | showed activity | use-dependent pUD30: ≥ 4.5 |
| C[C@@H]1COCCN1Cc1nnnn1-c1ccc(C(F)(F)F)cc1.Cl [Compound 28, (3R)-3-Methyl-4-({1-[4-(trifluoromethyl)phenyl]-1H-tetrazol-5-yl}methyl)morpholine hydrochloride] | showed activity | – |
| CCN1CCN(Cc2nnnn2-c2ccc(C(F)(F)F)cc2)[C@H](C)C1=O [Compound 52, (3R)-1-Ethyl-3-methyl-4-({1-[4-(trifluoromethyl)phenyl]-1H-tetrazol-5-yl}methyl)-2-piperazinone] | showed activity | – |
| CCCS(=O)(=O)N1CCN(Cc2nnnn2-c2ccc(C#N)c(C(F)(F)F)c2)CC1 [Compound 106, 4-(5-{[4-(Propylsulfonyl)-1-piperazinyl]methyl}-1H-tetrazol-1-yl)-2-(trifluoromethyl)benzonitrile] | showed activity | – |
| N#Cc1ccc(-n2nnnc2CN2CCC(F)(F)C2)cc1 [Compound 17, 4-{5-[(3,3-Difluoro-1-pyrrolidinyl)methyl]-1H-tetrazol-1-yl}benzonitrile] | showed activity | use-dependent pUD30: ≥ 4.5 |
| C[C@@H]1CN(Cc2nnnn2-c2cccc(C#N)c2)C[C@H](C)O1.Cl [Compound 59, 3-(5-{[(cis)-2,6-Dimethyl-4-morpholinyl]methyl}-1H-tetrazol-1-yl)benzonitrile hydrochloride] | showed activity | use-dependent pUD30: ≥ 4.5 |
| CN1C[C@@H]2C[C@H]1CN2Cc1nnnn1-c1ccc(C(F)(F)F)cc1.Cl [Compound 98, (1S,4S)-2-Methyl-5-({1-[4-(trifluoromethyl)phenyl]-1H-tetrazol-5-yl}methyl)-2,5-diazabicyclo[2.2.1]heptane hydrochloride] | showed activity | – |
| CCN1CCN(Cc2nnnn2-c2ccc(C(F)(F)F)cc2)CC1.Cl [Compound 95, 1-Ethyl-4-({1-[4-(trifluoromethyl)phenyl]-1H-tetrazol-5-yl}methyl)piperazine hydrochloride] | showed activity | – |
| CC1CN(Cc2nnnn2-c2cccc(C(F)(F)F)c2)CCN1C (stereo not shown) [Compound 67, 1,2-Dimethyl-4-({1-[3-(trifluoromeethyl)phenyl]-1H-tetrazol-5-yl}methyl)piperazine dihydrochloride] | showed activity | use-dependent pUD30 (dihydrochloride): ≥ 5.5 |
| CS(=O)(=O)N1CCN(Cc2nnnn2-c2ccc(Cl)cc2)CC1 [Compound 22, 1-{[1-(4-Chlorophenyl)-1H-tetrazol-5-yl]methyl}-4-(methylsulfonyl)piperazine] | showed activity | – |
| O=C1CCC2CN(Cc3nnnn3-c3ccc(C(F)(F)F)cc3)CCN12 (stereo not shown) [Compound 74, 2-({1-[4-(Trifluoromethyl)phenyl]-1H-tetrazol-5-yl}methyl)hexahydropyrrolo[1,2-a]pyrazin-6(2H)-one] | showed activity | – |
| C[C@H]1COCCN1Cc1nnnn1-c1ccc(C(F)(F)F)cc1.Cl [Compound 39, (3S)-3-Methyl-4-({1-[4-(trifluoromethyl)phenyl]-1H-tetrazol-5-yl}methyl)morpholine hydrochloride] | showed activity | – |
| Clc1ccc(-n2nnnc2CN2CCOCC2)cc1Cl [Compound 21, 4-{[1-(3,4-Dichlorophenyl)-1H-tetrazol-5-yl]methyl}morpholine] | showed activity | – |
| FC(F)(F)c1cc(-n2nnnc2CN2CCOCC2)ccc1Cl [Compound 111, 4-({1-[4-chloro-3-(trifluoromethyl)phenyl]-1H-tetrazol-5-yl}methyl)morpholine] | showed activity | – |
| FC(F)(F)c1ccc(-n2nnnc2CN2CCN3CCCC3C2)cc1 (stereo not shown) [Compound 70, 2-({1-[4-(Trifluoromethyl)phenyl]-1H-tetrazol-5-yl}methyl)octahydropyrrolo[1,2-a]pyrazine di-hydrochloride] | showed activity | – |
| CN1CCC2(CCN(Cc3nnnn3-c3ccc(C#N)c(C(F)(F)F)c3)CC2)C1 [Compound 144, 4-{5-[(2-methyl-2,8-diazaspiro[4.5]dec-8-yl)methyl]-1H-tetrazol-1-yl}-2-(trifluoromethyl)benzonitrile dihydrochloride] | showed activity | use-dependent pUD30: ≥ 4.5 |
| C[C@@H]1CCCN1Cc1nnnn1-c1ccc(C#N)cc1.Cl [Compound 116, 4-(5-{[(2R)-2-methyl-1-pyrrolidinyl]methyl}-1H-tetrazol-1-yl)benzonitrile hydrochloride] | showed activity | use-dependent pUD30 (hydrochloride): ≥ 4.5 |
| C[C@@H]1COC[C@H](C)N1Cc1nnnn1-c1cccc(C(F)(F)F)c1.Cl [Compound 64, (cis)-3,5-dimethyl-4-({1-[3-(Trifluoromethyl)phenyl]-1H-tetrazol-5-yl}methyl)morpholine hydrochloride] | showed activity | use-dependent pUD30 (hydrochloride): ≥ 5.5 |
| CCN1CCN(Cc2nnnn2-c2ccc(C(F)(F)F)cc2)[C@@H](C)C1=O [Compound 143, (3S)-1-ethyl-3-methyl-4-({1-[4-(trifluoromethyl)phenyl]-1H-tetrazol-5-yl}methyl)-2-piperazinone] | showed activity | use-dependent pUD30: ≥ 4.5 |
| FC(F)(F)c1cccc(-n2nnnc2CN2CCOCC2)c1 [Compound 19, 4-({1-[3-(Trifluoromethyl)phenyl]-1H-tetrazol-5-yl}methyl)morpholine] | showed activity | – |
| C[C@@H]1COCCN1Cc1nnnn1-c1ccc(C(F)(F)F)cn1.Cl [Compound 42, (3R)-3-Methyl-4-({1-[5-(trifluoromethyl)-2-pyridinyl]-1H-tetrazol-5-yl}methyl)morpholine] | showed activity | – |
